Data from US20230234923A1.
No constants are given. Whether binding was seen depends on the method and setting. In cells and extracts the contact can be indirect. Some entries that bind do so weakly or less than the wild type.

Assays:
[1] = molecular target: T1, adiponectin receptor 1 (AdipoR1) (UniProt Q91VH1); test: co-immunoprecipitation from LPS-induced RAW 264.7 cells (summary of the example)
T1 sequence (looked up): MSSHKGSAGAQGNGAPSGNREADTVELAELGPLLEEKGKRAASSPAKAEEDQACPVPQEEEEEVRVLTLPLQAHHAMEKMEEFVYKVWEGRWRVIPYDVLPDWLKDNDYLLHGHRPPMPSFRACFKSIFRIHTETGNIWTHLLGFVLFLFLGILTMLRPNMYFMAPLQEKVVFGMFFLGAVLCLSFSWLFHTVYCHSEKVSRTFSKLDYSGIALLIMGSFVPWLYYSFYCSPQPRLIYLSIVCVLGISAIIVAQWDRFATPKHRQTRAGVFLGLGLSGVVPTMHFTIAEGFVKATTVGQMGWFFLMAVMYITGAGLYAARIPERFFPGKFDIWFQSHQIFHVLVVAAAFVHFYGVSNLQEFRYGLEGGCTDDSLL

[2] = molecular target: T1, adiponectin receptor 1 (AdipoR1); test: co-immunoprecipitation from LPS-induced RAW 264.7 cells (FIG. 6c)
[3] = molecular target: T1, adiponectin receptor 1 (AdipoR1); test: co-immunoprecipitation from RAW 264.7 lysates (anti-APPL1 or anti-MyD88 IP, immunoblot); control, LPS, AdipoAI or both

binding [1]: binds
binding [2]: binds
binding [3]: binds
B1: APPL1 (adaptor protein containing pleckstrin homology domain, phosphotyrosine binding (PTB) domain, and leucine zipper motif) (protein, UniProt Q8K3H0 1-707, looked up)
chain: MPGIDKLPIEETLEDSPQTRSLLGVFEEDATAISNYMNQLYQAMHRIYDAQNELSAATHLTSKLLKEYEKQRFPLGGDDEVMSSTLQQFSKVIDELSSCHAVLSTQLADAMMFPISQFKERDLKEILTLKEVFQIASNDHDAAINRYSRLSKKRENDKVKYEVTEDVYTSRKKQHQTMMHYFCALNTLQYKKKIALLEPLLGYMQAQISFFKMGSENLNGQLEEFLANIGTSVQNVRREMDGDVETMQQTIEDLEVASDPLYLPDPDPTKFPINRNLTRKAGYLNARNKTGLVSSTWDRQFYFTQGGNLMSQARGDVAGGLAMDIDNCSVMAVDCEDRRYCFQITSFDGKKSSILQAESKKDHEEWICTINNISKQIYLSENPEETAARVNQSALEAVTPSPSFQQRHESLRPGGQSRPPTARTSSSGSLGSESTNLAALSLDSLVAPDTPIQFDIISPVCEDQPGQAKAFGQGGRRTNPFGESGGSTKSETEDSILHQLFIVRFLGSMEVKSDDHPDVVYETMRQILAARAIHNIFRMTESHLLVTCDCLKLIDPQTQVTRLTFPLPCVVLYATHQENKRLFGFVLRTSGGRSESNLSSVCYIFESNNEGEKICDSVGLAKQIALHAELDRRASEKQKEIERVKEKQQKELSKQKQIEKDLEEQSRLIAASSRPNQAGSEGQLVLSSSQSEESDLGEEGKKRESEA
